Article PMC10483173
These are yes or no findings as the source states them, for the method shown. Binding can be weak; no strength is given. Tags and fused reporters may be left off the sequences shown.

Tests used:
[1] = biological target: BD-SJP2 (jujube witches' broom (JWB) phytoplasma); test: two-hybrid; bait (BD, pGBKT7) and prey (AD) vectors cotransformed into S. cerevisiae Y2HGold; growth on SD/-Ade/-His/-Leu/-Trp with 40 ug/ml X-alpha-Gal and 200 or 400 ng/ml AbA at 30°C for 3-5 days
[2] = biological target: BD-SJP1 (jujube witches' broom (JWB) phytoplasma); test: as above

B1: AD-AtBRC1 (protein, UniProt A1YKT1 1-433)
chain: MNNNIFSTTTTINDDYMLFPYNDHYSSQPLLPFSPSSSINDILIHSTSNTSNNHLDHHHQFQQPSPFSHFEFAPDCALLTSFHPENNGHDDNQTIPNDNHHPSLHFPLNNTIVEQPTEPSETINLIEDSQRISTSQDPKMKKAKKPSRTDRHSKIKTAKGTRDRRMRLSLDVAKELFGLQDMLGFDKASKTVEWLLTQAKPEIIKIATTLSHHGCFSSGDESHIRPVLGSMDTSSDLCELASMWTVDDRGSNTNTTETRGNKVDGRSMRGKRKRPEPRTPILKKLSKEERAKARERAKGRTMEKMMMKMKGRSQLVKVVEEDAHDHGEIIKNNNRSQVNRSSFEMTHCEDKIEELCKNDRFAVCNEFIMNKKDHISNESYDLVNYKPNSSFPVINHHRSQGAANSIEQHQFTDLHYSFGAKPRDLMHNYQNMY
[1]
  binding: binds
[2]
  binding: binds
